No constants are given. Whether binding was seen depends on the method and setting. Some binding calls cover weakened binding; strength is not graded here.
Molecular target: T1, asialoglycoprotein receptor (human) (UniProt P07306+P07307)
T1 sequence (looked up) 1: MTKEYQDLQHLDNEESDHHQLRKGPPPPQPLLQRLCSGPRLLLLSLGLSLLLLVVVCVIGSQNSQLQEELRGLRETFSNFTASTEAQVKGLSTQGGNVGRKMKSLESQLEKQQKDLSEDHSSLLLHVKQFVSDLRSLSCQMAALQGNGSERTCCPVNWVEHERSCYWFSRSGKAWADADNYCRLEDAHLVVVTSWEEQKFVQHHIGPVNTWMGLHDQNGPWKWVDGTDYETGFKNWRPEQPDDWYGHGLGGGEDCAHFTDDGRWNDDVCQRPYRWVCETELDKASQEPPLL
T1 sequence (looked up) 2: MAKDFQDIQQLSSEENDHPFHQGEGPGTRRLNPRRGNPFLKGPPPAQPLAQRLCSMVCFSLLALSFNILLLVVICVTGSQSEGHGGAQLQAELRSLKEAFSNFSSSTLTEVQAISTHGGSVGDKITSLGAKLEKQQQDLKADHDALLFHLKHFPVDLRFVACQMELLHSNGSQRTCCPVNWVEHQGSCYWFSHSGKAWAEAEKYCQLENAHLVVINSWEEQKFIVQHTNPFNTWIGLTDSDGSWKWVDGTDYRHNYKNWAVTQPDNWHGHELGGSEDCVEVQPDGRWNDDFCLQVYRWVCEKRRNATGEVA
Test: radiolabelled ligand binding to hepatoma cell lines; HepG2 identified as receptor-expressing

Amino acid sequences for entries named in this document (tags omitted). A change or cut given only in a name is not applied to a line headed by its entry.
UniProt P02763: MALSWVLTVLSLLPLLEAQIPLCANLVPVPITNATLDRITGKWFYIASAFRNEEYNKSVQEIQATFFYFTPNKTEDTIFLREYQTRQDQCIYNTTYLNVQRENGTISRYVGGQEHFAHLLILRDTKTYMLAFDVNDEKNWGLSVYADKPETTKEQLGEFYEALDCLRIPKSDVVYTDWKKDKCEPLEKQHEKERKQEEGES

Substance: [^121I]-labeled asialo-orsomucoid (from UniProt P02763 19-201) (ligand)
- binding: binds
